PubChem BioAssay AID540276 (National Center for Advancing Translational Sciences (NCATS), 2011)
“And” between values parts separate entries of the source, which are not always exact repeats. Identical values can stand only once. About 5,400 (1.8%) of roughly 300,000 compounds were called active. The inconclusive results got no clear call from the source; some entries with a clear call stand among them for comparison. Calls follow the shape of the full dose curve; tested in HEK293 cells. Potencies beside an inconclusive call are fits to weak or partial responses and may not hold up.
Potency is read from the fitted curve at half-maximal effect.

Assay: qHTS for inhibitors of binding or entry into cells for Marburg Virus
Conditions: Marburg virus pseudotyped entry inhibition, cell reporter; series mostly up to 37.8 µM
In the case of `Clc1ccccc1/C=C/C=N/Nc1nc(N2CCOCC2)nc(N2CCOCC2)n1`, the Potency is reported as inconclusive: 35.5 µM [inhibitor, single point].
For `O=C1[C@H]2[C@H]3[C@H](O)[C@H](O)C/C(=N/OCc4ccccc4)[C@H]3CC[C@@H]2C(=O)N1C1CCCCC1`, the Potency was “inactive”.
For `CC(=O)N1CC(=O)N=C1SCC(=O)Nc1nc(C)c(-c2ccccc2)s1`, the Potency was “inactive”.
For `CCC(=O)NC(=S)Nc1ccc(NC(=O)COc2ccc(Cl)c(C)c2)cc1`, the Potency was inconclusive: 20 µM [activator, single point].
With `CSC1=NC(C)(C)C=C(/C=C/c2ccc(Cl)cc2Cl)N1` the Potency was inconclusive: 10 µM [inhibitor, partial curve, poor fit].
For `CC(C)=C1SC(N2CCN(c3ccc(C)c(Cl)c3)CC2)=NC1=O`, the Potency was inconclusive: 2.51 µM [activator, single point].
For `Cc1cccc(N(C)c2ccc3cc(S(=O)(=O)N4CCCC4)ccc3n2)c1`, the Potency was inconclusive: 5.62 µM [activator, single point].
With `c1ccc(C(CN2CCCCC2)c2ccccc2)cc1` the Potency was “inactive”.
In the case of `O=C(c1cc(NC(=O)C23CC4CC(CC(C4)C2)C3)cc(NC(=O)C23CC4CC(CC(C4)C2)C3)c1)N1CCCCC1`, the Potency is reported as inconclusive: 13 µM [inhibitor, partial curve, poor fit].
For `CC(=O)c1c(C)[nH]c(C(=O)OCC(=O)Nc2sc3c(c2C#N)CCCC3)c1C`, the Potency was inconclusive: 31.6 µM [inhibitor, partial curve, poor fit].
For `COC(=O)C(=O)N1CC2(C)CNCC(C)(C1)C2=O`, the Potency was inconclusive: 1.26 µM [activator, partial curve, poor fit].
In the case of `CN1CCN(Cn2cc(/C=C/C(=O)c3ccccc3)c3ccccc32)CC1`, the Potency is reported as inconclusive: 2.51 µM [activator, full curve, poor fit].
In the case of `COc1cc(C(=O)OCC(=O)Nc2ccc(S(=O)(=O)N3CCCC3)cc2)cc(OC)c1OC`, the Potency is reported as inconclusive: 6.31 µM [inhibitor, partial curve, poor fit].
With `CCOC(=O)N/N=C\c1ccc([N+](=O)[O-])s1` the Potency was inconclusive: 35.5 µM [inhibitor, single point].
With `COc1cc(/C=N/NC(=O)c2cccc(C)c2)ccc1OCC(=O)Nc1ccccc1` the Potency was inconclusive: 0.355 µM [inhibitor, partial curve, poor fit].
With `Cc1cc(=O)oc2c3c4c(cc12)OCCN4CCC3` the Potency was inconclusive: 0.82 µM [inhibitor, partial curve, poor fit].
In the case of `COc1ccc(C(=O)N/C(=C/c2cccs2)C(=O)NC(C)(C)C)cc1OC`, the Potency is reported as “inactive”.
For `COc1ccc(NC(=O)CC2C(=O)N(c3ccc(F)cc3)C(=S)N2NC(=O)c2ccc(Cl)cc2)cc1` (stereo unspecified), the Potency was “inactive”.
In the case of `COCCCNC(=O)CSc1nc2ccccc2c(=O)n1Cc1ccc2c(c1)OCO2`, the Potency is reported as inconclusive: 0.316 µM [inhibitor, partial curve, poor fit].
For `CC1CN(S(=O)(=O)c2cccc(C(F)(F)F)c2)C(C)N1C(=O)N1CCOCC1` (stereo unspecified), the Potency was inconclusive: 6.31 µM [inhibitor, single point].
With `CCOc1ccc(CCNC(=O)CCc2c(C)nc3cc(-c4ccccc4OC)nn3c2C)cc1` the Potency was inconclusive: 35.5 µM [inhibitor, single point].
For `CC1CCCN(CC(O)COc2ccc(Cl)cc2)C1` (stereo unspecified), the Potency was “inactive”.
In the case of `Cc1ccc(/C=C/C(=O)N2CCN(S(=O)(=O)c3ccc(C)c(C)c3)CC2)o1`, the Potency is reported as inconclusive: 3.55 µM [activator, partial curve, poor fit].
With `Cc1ccc(CS(=O)Cc2ccc(C(=O)NC3CCC(C)CC3)o2)cc1` (stereo unspecified) the Potency was inconclusive: 1 µM [inhibitor, partial curve, poor fit].
With `CCOC(=O)Cc1csc(NC(=O)Cc2ccc(Cl)cc2)n1` the Potency was inconclusive: 11.2 µM [inhibitor, partial curve, poor fit].
For `Cc1c(N=Nc2c(O)n(C)c(=O)n(C)c2=O)c(=O)n(-c2ccccc2)n1C`, the Potency was “inactive”.
With `O=C(Nc1cccc(S(=O)(=O)N2CCOCC2)c1)c1cn(-c2ccccc2)nc1-c1ccc(F)cc1` the Potency was inconclusive: 6.31 µM [inhibitor, single point].
With `CCOc1ccc(CCNC(=O)CSc2cc(=O)n(C)c3cc(Cl)ccc23)cc1OCC` the Potency was inconclusive: 15.8 µM [activator, partial curve, poor fit].
For `CCOC(=O)c1nnn(-c2nonc2NC(C)=O)c1C`, the Potency was inconclusive: 0.501 µM [activator, full curve, poor fit].
With `Cc1cc(C)cc(N=C2NC(=O)/C(=C/c3cccs3)S2)c1` the Potency was “inactive”.
For `CCOc1ccc(NS(=O)(=O)c2ccc(C(=O)NC3CCC(O)CC3)cc2)cc1` (stereo unspecified), the Potency was inconclusive: 1.26 µM [inhibitor, single point].
With `COC(=O)CCCC1=CC2=C(c3ccccc3)C(=O)C(C)(OC(=O)C3CCCC3)C(=O)C2=CN1Cc1ccc(OC)cc1` (stereo unspecified) the Potency was inconclusive: 0.0335 µM [activator, full curve, poor fit].
For `CCc1ccccc1-n1ncc(C(=O)Nc2ccccc2OC)c1C`, the Potency was inconclusive: 3.16 µM [inhibitor, partial curve, poor fit].
For `CCOc1ccc(-c2nc(SCC(=O)NC3CCCC3)c(-c3ccccc3)[nH]2)cc1OC`, the Potency was inconclusive: 12.6 µM [inhibitor, partial curve, poor fit].
For `COc1ccc(-n2c(C)cc(C=O)c2C)cc1Cl`, the Potency was inconclusive: 35.5 µM [inhibitor, single point].
With `Cn1c2ccccc2c(=O)c2c(=O)n(C3CCCCCC3)c(C3CCCCC3)nc21` the Potency was “inactive”.
For `COc1ccccc1-c1c(C)nn2c(N3CCCCCC3)cc(C)nc12`, the Potency was inconclusive: 14.6 µM [inhibitor, partial curve, poor fit].
With `CCCn1c(SC(C)C(=O)NCC2CCCO2)nc2sc(CC)cc2c1=O` (stereo unspecified) the Potency was “inactive”.
In the case of `CC(C)Oc1ccc(CNC(=O)CC(c2ccccc2)c2cc(Cl)ccc2O)cc1` (stereo unspecified), the Potency is reported as inconclusive: 18.3 µM [inhibitor, single point].
In the case of `Cc1nn(-c2ccccc2)c(N)c1C(O)(CSc1nccn1C)C(F)(F)F` (stereo unspecified), the Potency is reported as “inactive”.
With `CCCCN(CC)C(=O)c1cc2cc3ccc(OC)cc3nc2o1` the Potency was inconclusive: 29.1 µM [inhibitor, single point].
In the case of `COc1ccc(CC(C)NC2CCCCCC2)cc1` (stereo unspecified), the Potency is reported as inconclusive: 35.5 µM [inhibitor, single point].
For `O=C(N/N=C/c1cccn1-c1ccc([N+](=O)[O-])cc1)c1cccnc1`, the Potency was inconclusive: 20 µM [inhibitor, partial curve].
For `CCCC1=Nc2cc(C(=O)NCCc3ccccc3)ccc2Sc2ccc(C)cc21`, the Potency was inconclusive: 15.8 µM [inhibitor, partial curve, poor fit].
For `Cc1ccc(S(=O)(=O)N2CCCCC2)cc1NC(=O)CN1CC=C(c2ccccc2)CC1`, the Potency was inconclusive: 29.1 µM [inhibitor, single point].
For `COc1cc(C2C(C#N)=C(N)OC3=C2C(=O)CCC3)cc(OC)c1OC(=O)N1CCOCC1` (stereo unspecified), the Potency was “inactive”.
In the case of `Cc1ccc(C)c(C(=O)COC(=O)c2cccc(N3C(=O)c4c(C)nc5ccccc5c4C3=O)c2)c1`, the Potency is reported as inconclusive: 1.26 µM [inhibitor, full curve, poor fit].
For `COC[C@@H](OC(C)=O)[C@H]1OCc2ccccc2[C@@H]1C=Cc1ccccc1`, the Potency was “inactive”.
In the case of `C/C(=N\NC(=O)OC(C)(C)C)c1ccccc1Br`, the Potency is reported as “inactive”.
In the case of `COC(=O)C1=C(C(=O)OC)[C@@H]2N(C)c3ccccc3[C@@]23C[C@@H](CO)N(C(=O)c2ccc(Br)cc2)C3=N1`, the Potency is reported as “inactive”.
For `Cn1c(/C=C/c2ccc([N+](=O)[O-])o2)nc2ccccc2c1=O`, the Potency was inconclusive: 2.82 µM [inhibitor, partial curve, poor fit].
For `O=C(/C=C/c1ccccc1Cl)c1ccc[nH]1`, the Potency was inconclusive: 0.731 µM [inhibitor, full curve, poor fit].
For `COc1ccc(CNCCC(c2ccccc2)c2ccc3c(c2)OCO3)cc1` (stereo unspecified), the Potency was inconclusive: 29.1 µM [inhibitor, single point] and inconclusive: 22.4 µM [inhibitor, partial curve, poor fit].
For `COc1ccc(OC)c(N(CC(=O)Nc2cccnc2)S(=O)(=O)c2ccc(C)cc2)c1`, the Potency was inconclusive: 2.06 µM [inhibitor, full curve, poor fit].
For `CCCNc1nc(Cl)nc(Nc2ccc(Cl)cc2)n1`, the Potency was inconclusive: 12.6 µM [inhibitor, partial curve, poor fit].
In the case of `CCCCNC(=O)COC(=O)c1ccc(C)c(NC(=O)c2ccco2)c1`, the Potency is reported as inconclusive: 2.51 µM [inhibitor, partial curve, poor fit].
In the case of `Cc1ccc(C(=O)N(Cc2cccnc2)Cc2cc3cc(C)ccc3n3nnnc23)cc1`, the Potency is reported as inconclusive: 6.51 µM [inhibitor, partial curve, poor fit].
With `O=C(Nc1ccc(-c2ccc(N3CCCCC3)nn2)cc1)c1ccco1` the Potency was inconclusive: 3.16 µM [activator, single point].
With `Cc1ccc([N+](=O)[O-])cc1NC(=S)NC(=O)c1cccnc1` the Potency was inconclusive: 20 µM [inhibitor, single point].
In the case of `CN(C)c1ccc2c(c1[N+](=O)[O-])Cc1ccccc1-2`, the Potency is reported as inconclusive: 7.08 µM [activator, partial curve, poor fit].
With `Cc1cc(NC(=O)Nc2nnc(N(C)Cc3ccccc3)s2)ccc1Br` the Potency was inconclusive: 35.5 µM [inhibitor, single point].
